Results are given in words; binding and its absence hold for the method and conditions named. In cells and extracts the contact can be indirect. Some binding calls cover weakened binding; strength is not graded here.
Target: cyclin dependent kinase 9 (Cdk9) (endogenous, neonatal rat ventricular myocytes) (rat) (UniProt Q641Z4)
Assay: co-immunoprecipitation and Western blot from lysates of rat ventricular myocytes with or without ET-1 for 15 min

Protein sequences, listed by entry. Tags and fused reporters are not part of them. Lines headed by an entry give the natural chain unless they say otherwise; changes in a name come on top. Chains listed by the source or under a name are the forms on record and can include a tag or linker.
UniProt Q641Z4: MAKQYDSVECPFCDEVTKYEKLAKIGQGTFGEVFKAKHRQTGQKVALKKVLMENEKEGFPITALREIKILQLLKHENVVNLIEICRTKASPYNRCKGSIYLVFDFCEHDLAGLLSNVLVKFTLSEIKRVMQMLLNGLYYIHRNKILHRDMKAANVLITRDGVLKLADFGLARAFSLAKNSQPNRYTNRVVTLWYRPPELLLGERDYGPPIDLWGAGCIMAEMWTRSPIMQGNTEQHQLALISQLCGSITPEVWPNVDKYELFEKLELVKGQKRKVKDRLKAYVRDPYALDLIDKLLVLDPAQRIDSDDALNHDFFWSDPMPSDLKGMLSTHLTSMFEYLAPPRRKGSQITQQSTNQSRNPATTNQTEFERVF
cyclin T1 (endogenous, neonatal rat ventricular myocytes) (A0ABK0LWR1, form named): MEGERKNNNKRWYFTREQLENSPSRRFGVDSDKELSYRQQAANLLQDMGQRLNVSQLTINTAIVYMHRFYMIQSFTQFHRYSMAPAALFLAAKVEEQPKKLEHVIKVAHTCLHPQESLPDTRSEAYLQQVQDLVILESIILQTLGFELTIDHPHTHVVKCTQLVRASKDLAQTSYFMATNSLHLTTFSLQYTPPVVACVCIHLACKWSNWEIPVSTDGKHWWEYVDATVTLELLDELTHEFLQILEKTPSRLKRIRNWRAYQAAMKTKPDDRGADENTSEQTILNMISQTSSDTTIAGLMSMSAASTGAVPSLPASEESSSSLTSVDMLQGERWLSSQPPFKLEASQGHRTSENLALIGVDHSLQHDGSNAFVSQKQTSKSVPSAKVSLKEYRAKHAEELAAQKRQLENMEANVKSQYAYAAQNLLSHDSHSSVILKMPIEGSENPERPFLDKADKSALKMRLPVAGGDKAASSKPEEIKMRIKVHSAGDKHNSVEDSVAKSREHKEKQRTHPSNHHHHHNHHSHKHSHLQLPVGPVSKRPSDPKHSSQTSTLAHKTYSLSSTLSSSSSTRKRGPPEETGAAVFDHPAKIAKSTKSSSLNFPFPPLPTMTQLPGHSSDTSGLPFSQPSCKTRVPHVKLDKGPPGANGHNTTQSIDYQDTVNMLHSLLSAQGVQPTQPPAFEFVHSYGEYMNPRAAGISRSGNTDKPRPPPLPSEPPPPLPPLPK

cyclin T1 (endogenous, neonatal rat ventricular myocytes) (from UniProt A0ABK0LWR1 1-724)
binding: binds

Source: patent US20040106647A1, “Modulators of Cdk9 as a therapeutic target in cardiac hypertrophy” (priority 2002, published 2004)
